Data reported in patent US12319742.
No constants are given. Whether binding was seen depends on the method and setting. A result given as binding can be weak or reduced; the word gives no strength.

By UniProt entry, the sequences of proteins in these tests, tags left out. Where a name states a change or a piece, a line headed by the entry shows the natural chain unless it says otherwise.
UniProt Q93038: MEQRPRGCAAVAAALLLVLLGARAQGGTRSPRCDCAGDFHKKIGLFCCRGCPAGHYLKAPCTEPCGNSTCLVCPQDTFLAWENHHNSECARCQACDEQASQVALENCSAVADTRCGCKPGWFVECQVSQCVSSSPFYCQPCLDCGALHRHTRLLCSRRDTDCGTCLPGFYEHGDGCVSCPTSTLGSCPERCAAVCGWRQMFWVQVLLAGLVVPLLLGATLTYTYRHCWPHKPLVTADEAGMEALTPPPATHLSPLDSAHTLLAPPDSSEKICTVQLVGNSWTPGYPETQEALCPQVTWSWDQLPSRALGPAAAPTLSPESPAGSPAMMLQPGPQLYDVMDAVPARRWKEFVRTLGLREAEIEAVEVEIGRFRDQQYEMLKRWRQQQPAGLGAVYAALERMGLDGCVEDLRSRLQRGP

Legend:
[1] = target: human TNFRSF25 over-expressed on CHOK1 cells (cDNA sequence NP_683866) (human) (UniProt Q93038); test: flow cytometry on CHOK1-TNFRSF25+ cells (upper panel), 1 h at 4 C, APC anti-human Fc
[2] = target: human TNFRSF25 over-expressed on CHOK1 cells (cDNA sequence NP_683866) (human) (UniProt Q93038); test: flow cytometry on CHOK1-TNFRSF25+ cells
[3] = target: human TNFRSF25 over-expressed on CHOK1 cells (cDNA sequence NP_683866) (human) (UniProt Q93038); test: flow cytometry on CHOK1-TNFRSF25+ cells (lower panel), 1 h at 4 C, APC anti-human Fc

Binder | binding [1] | binding [2] | binding [3]
NH46 (whole antibody) (antibody, human IgG1, kappa, V domains shown) VH: QVQLVQSGSEVKKPGASVRVSCKVSGSTVKELSMHWVRQAPGKGLEWMGGYDPEDGESIFAQKFQGRVNMTEDRSTDTAYMELSSLRSEDTAVYYCATDLNWEDAFDVWGQGTMVTVSS VL: QSVLTQPPSVSAAPGQKVTISCSGSGSNIGNYYVAWYQQFPGTAPKLLIYDNNKRPSGIPDRFSGSKSGTSATLGITGLQTGDEADYYCGTWDTSLTAGDIYVFGTGTKVTVLR | binds | binds | –
NH24 (whole antibody) (antibody, human IgG1, kappa, V domains shown) VH: EVQLVESGGGSVQPGGSLRLSCAASGFTFSSYGMSWIRQAPGKGLEWISYISSSGGHTYYADSVKGRFTISRDNAKNSLYLQMNSLRAEDTAVYYCARGSGSFDYWGQGTLVTVSS VL: DIVMTQSPSSLSASVGDRVTITCQASQDITNYLSWYQQKPGKAPKLLISDASNLETGIPSRFSGSGSGTDFTFTISSLQPEDIATYYCQQYDTLPITFGQGTRLEIKR | binds | binds | –
SL-061mut213 (antibody, human IgG1, kappa, V domains shown) VH: QVQLQQSGPGLVKPSQTLSLTCAISGDSVSSYSAAWNWIRQSPSRGLEWLGRTYYRSKWFNDYAVSVKSRITINPDTSKNQFSLQLNSVTPEDTAVYYCARDYYGSESYYNRGYYYYGLDVWGQGTTVTVSS VL: AIQLTQSPSSLSASVGDRVTITCRASPSISSALAWYQQKPGKAPKLLMYDESSQEGSVPSRFSGSGSGTDFTLTISSLQPEDFATYYCQQFNEYPLTFGGGTKVEIKR | – | – | binds
